{"source": "paper PMC12011818", "molecular_target": "T1, IRF9, Q00978", "T1 chain": "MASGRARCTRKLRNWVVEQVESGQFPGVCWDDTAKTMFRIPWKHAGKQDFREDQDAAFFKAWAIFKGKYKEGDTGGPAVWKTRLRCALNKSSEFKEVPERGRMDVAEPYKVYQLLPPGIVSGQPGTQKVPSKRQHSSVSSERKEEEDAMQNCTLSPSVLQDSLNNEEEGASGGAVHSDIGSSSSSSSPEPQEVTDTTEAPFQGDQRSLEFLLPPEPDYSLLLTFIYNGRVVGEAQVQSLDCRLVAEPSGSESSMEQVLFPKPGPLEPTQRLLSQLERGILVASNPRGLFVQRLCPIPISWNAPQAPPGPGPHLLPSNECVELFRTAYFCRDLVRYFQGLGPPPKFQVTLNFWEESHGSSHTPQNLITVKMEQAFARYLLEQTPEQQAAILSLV", "assay": "co-IP", "settings": "remark: other sources report otherwise", "note": "These are yes or no findings as the source states them, for the method shown. Binding seen in cells or lysates may run through a third protein. Some results given as binding are weak or reduced against the parent protein; the word gives no strength."}
{"binder": "STAT1, P42224 1-750 (protein) MSQWYELQQLDSKFLEQVHQLYDDSFPMEIRQYLAQWLEKQDWEHAANDVSFATIRFHDLLSQLDDQYSRFSLENNFLLQHNIRKSKRNLQDNFQEDPIQMSMIIYSCLKEERKILENAQRFNQAQSGNIQSTVMLDKQKELDSKVRNVKDKVMCIEHEIKSLEDLQDEYDFKCKTLQNREHETNGVAKSDQKQEQLLLKKMYLMLDNKRKEVVHKIIELLNVTELTQNALINDELVEWKRRQQSACIGGPPNACLDQLQNWFTIVAESLQQVRQQLKKLEELEQKYTYEHDPITKNKQVLWDRTFSLFQQLIQSSFVVERQPCMPTHPQRPLVLKTGVQFTVKLRLLVKLQELNYNLKVKVLFDKDVNERNTVKGFRKFNILGTHTKVMNMEESTNGSLAAEFRHLQLKEQKNAGTRTNEGPLIVTEELHSLSFETQLCQPGLVIDLETTSLPVVVISNVSQLPSGWASILWYNMLVAEPRNLSFFLTPPCARWAQLSEVLSWQFSSVTKRGLNVDQLNMLGEKLLGPNASPDGLIPWTRFCKENINDKNFPFWLWIESILELIKKHLLPLWNDGCIMGFISKERERALLKDQQPGTFLLRFSESSREGAITFTWVERSQNGGEPDFHAVEPYTKKELSAVTFPDIIRNYKVMAAENIPENPLKYLYPNIDKDHAFGKYYSRPKEAPEPMELDGPKGTGYIKTELISVSEVHPSRLQTTDNLLPMSPEEFDEVSRIVGSVEFDSMMNTV", "values": [{"measurement": "binding", "result": "binds"}]}
